Holding throughout (experiment): pull-down; 3 μg purified GST fusion protein on glutathione beads, incubated with 1~2 mg lysate of transfected Ros 17/2.8 cells for 2 h at 4°C; lysis buffer 1% NP40, 0.5% sodium deoxycholate, 0.1% SDS in PBS; western blot; cells untreated or treated with 20 μM forskolin for 24 h (also with 5 μM H89), or lysates treated with forskolin in vitro; only the target purified

Amino acid sequences for entries named in this document (tags omitted). A change or cut given only in a name is not applied to a line headed by its entry.
UniProt O43707: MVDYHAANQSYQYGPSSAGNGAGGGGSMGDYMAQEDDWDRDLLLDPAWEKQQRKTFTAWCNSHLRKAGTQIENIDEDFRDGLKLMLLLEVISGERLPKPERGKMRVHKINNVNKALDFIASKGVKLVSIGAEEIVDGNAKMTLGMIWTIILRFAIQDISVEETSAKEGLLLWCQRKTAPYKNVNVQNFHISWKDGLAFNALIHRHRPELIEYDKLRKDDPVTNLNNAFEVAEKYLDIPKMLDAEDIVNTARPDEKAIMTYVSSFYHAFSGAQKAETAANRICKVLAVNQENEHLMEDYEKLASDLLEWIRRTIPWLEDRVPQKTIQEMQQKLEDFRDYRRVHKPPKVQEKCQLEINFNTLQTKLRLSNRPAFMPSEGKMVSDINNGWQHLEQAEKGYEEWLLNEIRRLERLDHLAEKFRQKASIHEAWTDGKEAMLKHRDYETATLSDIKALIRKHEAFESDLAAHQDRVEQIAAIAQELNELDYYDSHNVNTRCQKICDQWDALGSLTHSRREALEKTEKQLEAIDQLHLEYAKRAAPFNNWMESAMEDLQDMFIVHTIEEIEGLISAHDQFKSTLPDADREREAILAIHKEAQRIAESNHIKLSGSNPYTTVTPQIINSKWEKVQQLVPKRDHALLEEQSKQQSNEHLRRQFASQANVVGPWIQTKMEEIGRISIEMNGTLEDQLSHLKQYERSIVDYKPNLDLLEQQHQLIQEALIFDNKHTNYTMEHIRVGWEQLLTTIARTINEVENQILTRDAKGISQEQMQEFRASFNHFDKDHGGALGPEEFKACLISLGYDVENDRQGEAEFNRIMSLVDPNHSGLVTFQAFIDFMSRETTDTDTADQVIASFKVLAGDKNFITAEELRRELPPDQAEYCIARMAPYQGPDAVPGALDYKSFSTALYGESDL

Assay [1] addresses GST-actinin 4 ABD (actin-binding domain, amino acids 1-237) (UniProt O43707).
Assay [2] has as its target GST-actinin 4 EF (EF-hand domains, aa 742-811) (UniProt O43707).
Assay [3] concerns the target GST-actinin 4 R14 (spectrin-repeat domains 1-4, aa 269-724) (UniProt O43707).

Results are given in words; binding and its absence hold for the method and conditions named. In cells and extracts the contact can be indirect. For part of these data: Binding can be weak; no strength is given.

On to “L-type calcium channel β3 subunit (from UniProt P54287 1-484)”, for which the binding entry was “binds” in assay [1], “binds” in assay [2] and “no binding” in assay [3].

The record behind these values is paper PMC4406748.
